According to patent US20200317808A1 (AbbVie / Abbott, published 2020):
These are yes or no findings as the source states them, for the method shown. Some binding calls cover weakened binding; strength is not graded here.

Molecular target: T1, cynomolgus PD-1 Fc fusion (cynomolgus monkey, UniProt B0LAJ3 25-170)
T1 construct: also called Cyno PD-1 (ELISA)
Assay: ELISA on plate bound cynomolgus PD-1 Fc fusion

B1: Humanized 12A11.2b with M99L in CDR-H3 (antibody, V domains shown)
VH: EIQLVQSGAEVKKPGSSVKVSCKASGYTFTHYGMNWVRQAPGQGLEWVGWVNTYTGEPTYADDFKGRLTFTLDTSTSTAYMELSSLRSEDTAVYYCTREGEGLGFGDWGQGTTVTVSS
VL: DVVMTQSPLSLPVTPGEPASISCRSSQSIVHSHGDTYLEWYLQKPGQSPQLLIYKVSNRFSGVPDRFSGSGSGTDFTLKISRVEAEDVGVYYCFQGSHIPVTFGQGTKLEIK
notes: It was detected with anti-human Fab and captured with anti-human IgG Fc; also called Hu12A11.2b4; humanized antibody 12A11.2b M99L
Question: B1 was tested. Which binding did it give?
Answer: binds
